From PMC10869800
Read-outs that look alike come from different tables or passages of the source. Results are given in words; binding and its absence hold for the method and conditions named. In cells and extracts the contact can be indirect. These calls come from enrichment with a bait or labelling near it, and not all partners need be listed. Where a sequence is shown, tags or fusion partners need not be part of it. Each block holds one molecule with its values, some of them ahead of it.

The chains behind the UniProt entries cited, without tags or fusion partners.
UniProt O14965: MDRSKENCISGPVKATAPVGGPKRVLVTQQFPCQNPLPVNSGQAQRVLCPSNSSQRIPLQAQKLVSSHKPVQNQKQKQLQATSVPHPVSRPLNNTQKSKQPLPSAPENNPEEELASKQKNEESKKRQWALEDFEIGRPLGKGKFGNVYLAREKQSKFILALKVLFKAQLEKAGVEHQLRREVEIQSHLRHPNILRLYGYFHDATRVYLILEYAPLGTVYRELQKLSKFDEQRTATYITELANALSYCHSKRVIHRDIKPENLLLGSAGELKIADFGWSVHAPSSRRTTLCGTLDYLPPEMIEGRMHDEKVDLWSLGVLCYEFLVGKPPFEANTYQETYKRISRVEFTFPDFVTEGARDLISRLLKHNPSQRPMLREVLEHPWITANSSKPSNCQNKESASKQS

Experiments:
Myc-BioID2-EYA4 (human) [1] = target: T1, Myc-BioID2-EYA4 (human) (UniProt O95677); experiment: proximity labelling; BioID2: Myc-BioID2-EYA4 against a BioID2-Myc control, transfected in 293T, 50 µM biotin for 24 h, streptavidin-coated Dynabeads, LC-MS/MS with label-free quantification
T1 sequence: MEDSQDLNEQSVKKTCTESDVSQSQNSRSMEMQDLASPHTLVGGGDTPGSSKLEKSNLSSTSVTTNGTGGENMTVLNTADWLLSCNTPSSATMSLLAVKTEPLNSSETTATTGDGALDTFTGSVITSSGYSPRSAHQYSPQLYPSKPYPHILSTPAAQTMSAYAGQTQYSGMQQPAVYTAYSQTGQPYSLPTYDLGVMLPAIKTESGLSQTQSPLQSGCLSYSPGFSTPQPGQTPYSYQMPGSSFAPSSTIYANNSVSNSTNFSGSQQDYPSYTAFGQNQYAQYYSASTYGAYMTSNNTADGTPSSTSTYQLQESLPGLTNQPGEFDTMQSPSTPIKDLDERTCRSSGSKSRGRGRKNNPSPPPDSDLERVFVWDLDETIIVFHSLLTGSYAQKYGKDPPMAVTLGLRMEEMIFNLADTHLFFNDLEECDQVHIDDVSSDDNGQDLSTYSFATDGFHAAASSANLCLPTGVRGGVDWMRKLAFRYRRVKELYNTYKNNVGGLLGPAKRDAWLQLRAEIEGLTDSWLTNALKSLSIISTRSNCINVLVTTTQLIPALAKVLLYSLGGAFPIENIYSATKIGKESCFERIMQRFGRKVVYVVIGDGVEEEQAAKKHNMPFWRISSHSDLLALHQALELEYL

Myc-BioID2-EYA4 (human) [2] = target: T1, Myc-BioID2-EYA4 (human); experiment: as above; remark: listed apart in the source

binding (Myc-BioID2-EYA4 (human) [1]): binds
Molecule: Polo-like kinase 1 (PLK1), endogenous (from UniProt P53350 1-603)

binding (Myc-BioID2-EYA4 (human) [1]): binds
Molecule: Aurora kinase A (AURKA), endogenous (from UniProt O14965 1-403)

binding (Myc-BioID2-EYA4 (human) [2]): binds
B1: SIX1, endogenous (protein, UniProt Q15475 1-284)
chain: MSMLPSFGFTQEQVACVCEVLQQGGNLERLGRFLWSLPACDHLHKNESVLKAKAVVAFHRGNFRELYKILESHQFSPHNHPKLQQLWLKAHYVEAEKLRGRPLGAVGKYRVRRKFPLPRTIWDGEETSYCFKEKSRGVLREWYAHNPYPSPREKRELAEATGLTTTQVSNWFKNRRQRDRAAEAKERENTENNNSSSNKQNQLSPLEGGKPLMSSSEEEFSPPQSPDQNSVLLLQGNMGHARSSNYSLPGLTASQPSHGLQTHQHQLQDSLLGPLTSSLVDLGS
